These are yes or no findings as the source states them, for the method shown. In cells and extracts the contact can be indirect. Some entries that bind do so weakly or less than the wild type. For part of these data: Tags and fused reporters may be left off the sequences shown.
Key:
[1] = molecular target: RNF13 (co-IP with STING, Supplementary Fig. 6a) (UniProt O43567); experiment: co-IP; cells transfected with the indicated plasmids for 24 h (HEK293T in Fig. 9b); IP lysis buffer 20 mM Tris-HCl pH 7.4, 150 mM NaCl, 1 mM EDTA, 1% NP-40; protein A/G agarose beads and primary antibody at 4 °C overnight; washed with buffer containing 150 mM or 300 mM NaCl; immunoblot
[2] = molecular target: HA-RNF13 (RING finger protein 13) (UniProt O43567); experiment: as above
[3] = molecular target: RNF13 (in vitro pull-down, Supplementary Fig. 6d) (UniProt O43567); experiment: pull-down; in vitro pull-down analysis (Supplementary Fig. 6d); not described in the methods

The chains behind the UniProt entries cited, without tags or fusion partners. Residues count along the entry.
UniProt O43567, residues 35-381: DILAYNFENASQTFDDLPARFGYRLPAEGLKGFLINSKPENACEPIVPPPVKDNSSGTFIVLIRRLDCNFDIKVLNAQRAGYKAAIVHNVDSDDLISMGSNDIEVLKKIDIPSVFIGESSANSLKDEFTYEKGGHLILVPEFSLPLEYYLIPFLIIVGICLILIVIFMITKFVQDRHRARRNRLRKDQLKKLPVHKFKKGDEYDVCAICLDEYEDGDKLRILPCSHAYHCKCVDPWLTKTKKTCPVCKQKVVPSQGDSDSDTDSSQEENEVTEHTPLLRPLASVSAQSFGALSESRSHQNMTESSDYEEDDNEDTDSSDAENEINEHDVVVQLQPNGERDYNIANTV
UniProt Q86WV6: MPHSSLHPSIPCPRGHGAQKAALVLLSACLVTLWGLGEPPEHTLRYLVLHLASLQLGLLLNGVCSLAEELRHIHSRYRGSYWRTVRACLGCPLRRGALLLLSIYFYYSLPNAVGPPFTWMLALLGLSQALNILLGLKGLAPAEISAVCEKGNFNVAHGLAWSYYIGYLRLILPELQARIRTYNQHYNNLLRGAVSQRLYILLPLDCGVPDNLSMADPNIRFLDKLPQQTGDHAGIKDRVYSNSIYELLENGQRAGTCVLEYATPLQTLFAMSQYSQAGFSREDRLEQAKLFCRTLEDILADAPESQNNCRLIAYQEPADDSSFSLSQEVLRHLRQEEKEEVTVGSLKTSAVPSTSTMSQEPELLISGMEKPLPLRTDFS

STING (co-IP with RNF13, Supplementary Fig. 6a; interaction with TRIM29, Supplementary Fig. 7a) (from UniProt Q86WV6 1-379)
binding [1]: no binding

B1: Flag-TRIM29 (tripartite motif-containing 29) (protein, UniProt Q14134 1-588)
chain: MEAADASRSNGSSPEARDARSPSGPSGSLENGTKADGKDAKTTNGHGGEAAEGKSLGSALKPGEGRSALFAGNEWRRPIIQFVESGDDKNSNYFSMDSMEGKRSPYAGLQLGAAKKPPVTFAEKGELRKSIFSESRKPTVSIMEPGETRRNSYPRADTGLFSRSKSGSEEVLCDSCIGNKQKAVKSCLVCQASFCELHLKPHLEGAAFRDHQLLEPIRDFEARKCPVHGKTMELFCQTDQTCICYLCMFQEHKNHSTVTVEEAKAEKETELSLQKEQLQLKIIEIEDEAEKWQKEKDRIKSFTTNEKAILEQNFRDLVRDLEKQKEEVRAALEQREQDAVDQVKVIMDALDERAKVLHEDKQTREQLHSISDSVLFLQEFGALMSNYSLPPPLPTYHVLLEGEGLGQSLGNFKDDLLNVCMRHVEKMCKADLSRNFIERNHMENGGDHRYVNNYTNSFGGEWSAPDTMKRYSMYLTPKGGVRTSYQPSSPGRFTKETTQKNFNNLYGTKGNYTSRVWEYSSSIQNSDNDLPVVQGSSSFSLKGYPSLMRSQSPKAQPQTWKSGKQTMLSHYRPFYVNKGNGIGSNEAP
binding [2]: binds

B2: TRIM29 (in vitro pull-down, Supplementary Fig. 6d) (protein, UniProt Q14134 1-588)
chain: B1 chain
binding [3]: binds
